Results published in PubChem BioAssay AID485314 (National Center for Advancing Translational Sciences (NCATS), 2010).
The campaign covered roughly 340,000 compounds. About 4,500 (1.3%) were called active. Inconclusive means that the source gave no clear call. Such entries were picked first, then a sample of the others. Calls follow the shape of the dose curve; as a rule, active = well fitted inhibition curve with a large enough effect; inconclusive = small, poorly fitted or top-dose-only effect, or another doubt; inactive = no such curve, though single readings can be large or run the other way. A potency beside an inconclusive call is a rough fit, not a confirmed value. Some structures have more than one record in an assay (separate samples or runs), and their calls can disagree.
% is scaled to controls: 0 for no effect and ±100 for the full control effect; potency is read from the fitted curve at half-maximal effect.

What follows are compounds tested against DNA polymerase beta (Homo sapiens) (UniProt P06746) (assay: qHTS Assay for Inhibitors of DNA Polymerase Beta). Settings: Pol beta primer extension/strand displacement, fluorescence kinetic; activity change, negative = inhibition: at 114 µM (top of the series).
Source text: The base excision repair system in human cells is a target for therapeutic modulation of the response to irradiation treatment and DNA-damaging drugs. A key enzyme in this system is the bi-functional DNA polymerase known as DNA polymerase Beta (Pol Beta). The following is a homogeneous kinetic assay to study the primer extension and strand-displacement reaction catalyzed by pol beta.
A stepwise description of the 1536-well assay is shown in next Table. Three microliters of reagents (buffer in column 3 and 4 as negative control and 10 nM Pol beta in columns 1, 2, and 5-48) was dispensed into 1,536-well black solid-bottomed plate. Compounds (23 nL) were transferred via Kalypsys pin tool equipped with 1536-pin array (10 nL slotted pins, V&P Scientific, San Diego, CA). The plates were incubated for 15 min at room temperature, and 1 uL substrate (50 nM final concentration) were added to start the reaction and immediately read at 0 min read on Viewlux reader. The plate were further incubated for 10 min at room temperature, and then read on Viewlux again. Throughout the screen, reagent bottle and all liquid lines were chilled and made light-tight to minimize reagent degradation. All screening operations were performed on a fully integrated robotic system (Kalypsys, San Diego, CA) containing one RX-130 and two RX-90 anthropomorphic robotic arms (Staubli, Duncan, SC). Library plates were screened starting from the lowest and proceeding to the highest concentration, and a double-dipping step of the highest concentration was required to access higher concentrations of compounds. Vehicle-only plates, with DMSO being pin-transferred to the entire column 5-48 compound area, were inserted uniformly at the beginning and the end of each library in order to monitor for and record any shifts in the background, which can be affected by reagent dispensers or loss in enzyme activity overtime. Screening data were corrected, normalized, and concentration-effect relationships were derived by using publicly-available curve fitting algorithms developed in-house (http://ncgc.nih.gov/pub/openhts). A four parameter Hill equation was fitted to the concentration-response data by minimizing the residual error between the modeled and observed responses.
For `CCc1nnc(NS(=O)(=O)c2ccc(N/C=C\C(=O)c3ccc4ccccc4c3)cc2)s1`, the Potency was inconclusive: 50.1 µM [inhibitor, partial curve]. With `C=CCN1C(=O)CS/C1=C(\C#N)S(=O)(=O)c1ccc(C)cc1` the Potency was inconclusive: 89.1 µM [inhibitor, single point]. With `Cc1cc(N2CCCCC2)nc2ccc(NC(=O)/C=C/c3ccccc3OC(C)C)cc12` the “activity change, negative = inhibition” value was inactive: 30.1%. For `COc1ccc(NC(=O)C2CCCN(c3ncnc4onc(-c5ccc(F)cc5)c34)C2)cc1` (stereo not drawn), the Potency was inconclusive: 0.141 µM [inhibitor, full curve, poor fit]. With `CCOC(=O)c1cc(C#N)c(N2CCN(c3ccccn3)CC2)nc1-c1ccccc1` the “activity change, negative = inhibition” value was inactive: 7.56%. In the case of `Clc1cccc(/C=N/Nc2nc(Cl)nc3ccccc23)c1`, the Potency is reported as inconclusive: 0.316 µM [inhibitor, full curve]. With `COC(=O)[C@H](Cc1ccccc1)NC(=O)N1CCCCCC1` the Potency was inconclusive: 17.8 µM [inhibitor, full curve, poor fit]. With `CS(=O)(=O)Nc1ccc(C2=NN(C(=O)c3ccco3)C(c3ccccc3F)C2)cc1` (stereo not drawn) the Potency was inconclusive: 89.1 µM [inhibitor, single point]. For `Cc1ccccc1CNC(=O)Cn1ncn2nc(-c3cccs3)cc2c1=O`, the “activity change, negative = inhibition” value was inactive: 11.1%. In the case of `COc1cccc(NC(=O)Cn2cc(S(=O)(=O)N3CCCC3)c(S(=O)(=O)N3CCCC3)c2)c1`, the Potency is reported as inconclusive: 39.8 µM [inhibitor, partial curve]. `Cc1ccccc1Nc1nnc(SCC(=O)NC(=O)Nc2ccc3c(c2)OCCO3)s1` was tested, and the Potency was inconclusive: 89.1 µM [inhibitor, single point]. In the case of `Cc1cccc(CSc2cn(CC(=O)N3CCCC3)c3ccccc23)c1`, the Potency is reported as inconclusive: 0.126 µM [inhibitor, full curve, poor fit]. In the case of `CCC(Oc1ccccc1)C(=O)Nc1ccc2oc(-c3ccc(OC)cc3)nc2c1` (stereo not drawn), the Potency is reported as inconclusive: 22.4 µM [inhibitor, partial curve]. For `Cn1c(=O)cc(OCCCC(=O)Nc2ccc(F)cc2)c2ccccc21`, the “activity change, negative = inhibition” value was inactive: -19.2%. `Cc1cc(C)c(S(=O)(=O)c2ccccc2)c(Cl)n1` was tested, and the “activity change, negative = inhibition” value was inactive: -3.1%. In the case of `Cc1ccc(NC(=S)NC(=O)c2sc3ccccc3c2Cl)c(C(=O)O)c1`, the Potency is reported as active: 20 µM. `CCC(=O)N1CCc2cc(Br)cc(S(=O)(=O)N3CCCC(C(=O)Nc4cccc(Cl)c4C)C3)c21` (stereo not drawn) was tested, and the “activity change, negative = inhibition” value was inactive: 7.19%. `Cc1ccc(C(=O)COC(=O)C(CC(C)C)NC(=O)C2CCC(C)CC2)cc1` (stereo not drawn) was tested, and the Potency was inconclusive: 1.12 µM [inhibitor, single point]. `CCCc1nc2oc3c(N4CCNCC4)ncnc3c2c2c1CCCC2` was tested, and the Potency was inconclusive: 1 µM [inhibitor, full curve, poor fit]. For `CC(Oc1ccccc1)C(=O)Nc1oc(-c2ccco2)c(-c2ccco2)c1C#N` (stereo not drawn), the Potency was inconclusive: 14.1 µM [inhibitor, full curve]. `COc1cc(OC)c(NC(=O)NC(C)c2c(-n3cccc3)sc(C)c2C)cc1Cl` (stereo not drawn) was tested, and the “activity change, negative = inhibition” value was inactive: -0.34%. For `O=C(CC1CCCC1)Nc1ccc(Br)cc1`, the “activity change, negative = inhibition” value was inactive: 11.5%. In the case of `Cc1cc2nc(C3CCCN(C(=S)Nc4ccccc4)C3)[nH]c2cc1C` (stereo not drawn), the Potency is reported as inconclusive: 3.98 µM [inhibitor, single point]. `CC(=O)N(C(C)=O)c1c(C#N)c(C)n(-c2ccccc2)c1C(=O)c1ccccc1` was tested, and the Potency was inconclusive: 89.1 µM [inhibitor, single point]. In the case of `CCn1c(C)cc(O)cc1=O`, the Potency is reported as inconclusive: 22.4 µM [inhibitor, single point]. For `COc1ccc(/C=N\NC(=O)c2ccccc2F)cc1COc1ccc(F)cc1F`, the “activity change, negative = inhibition” value was inactive: 35.3%. In the case of `CCCC(C(=O)NC(C)(C)C)N(Cc1ccccc1Cl)C(=O)c1snc(C(N)=O)c1N` (stereo not drawn), the “activity change, negative = inhibition” value is reported as inactive: -12.9%. In the case of `COc1ccccc1Nc1nc(C2(C)CCC(=O)O2)cs1` (stereo not drawn), the Potency is reported as inconclusive: 89.1 µM [inhibitor, single point]. `COC(=O)c1ccc(NC(=O)c2cc(S(=O)(=O)N3CCc4ccccc43)cn2C)cc1` was tested, and the “activity change, negative = inhibition” value was inactive: -3.29%. `Cc1cc(C)cc(NS(=O)(=O)c2ccc3[nH]cc(C(=O)N4CCCC4)c(=O)c3c2)c1` was tested, and the “activity change, negative = inhibition” value was inactive: 0.539%. With `O=C(OCc1cc(=O)n2nc(C3CC3)sc2n1)c1ccc(F)cc1` the “activity change, negative = inhibition” value was inactive: 25.6%. In the case of `COC(=O)C1=CN(c2cccc(C)c2)C=C(C(=O)OC)C1c1cc(OC)c(O)c([N+](=O)[O-])c1`, the Potency is reported as inconclusive: 89.1 µM [inhibitor, single point]. For `COc1ccc(C(=O)Nn2cnnc2)cc1OC`, the activity change, negative = inhibition was inconclusive: -67.7% [inhibitor]. In the case of `CCCSc1nnc(NC(=O)CSc2sc3c(O)cc(=O)[nH]c3c2C#N)s1`, the Potency is reported as active: 20 µM. `CC(C)Cn1c(SCC(=O)c2ccc(Cl)s2)nnc1-c1ccco1` was tested, and the Potency was inconclusive: 28.2 µM [inhibitor, full curve]. With `COc1ccccc1N1CCN(C(CNC(=O)C(=O)NCCCN(C)C)c2cccnc2)CC1` (stereo not drawn) the Potency was inconclusive: 89.1 µM [inhibitor, single point]. `Cc1nc(C)c(C(=O)N/N=C/c2c[nH]c3ccccc23)s1` was tested, and the Potency was inconclusive: 0.0631 µM [inhibitor, full curve, poor fit]. `N#Cc1c(NC(=O)c2cc3nc(-c4ccc(Br)cc4)cc(C(F)(F)F)n3n2)sc2c1CCCC2` was tested, and the “activity change, negative = inhibition” value was inactive: -18%. `CCc1ccc(NC(=O)CSc2nc3n[nH]c(C)c3c(=N)n2-c2ccccc2C)cc1` was tested, and the “activity change, negative = inhibition” value was inactive: 6.05%. `COc1ccccc1NC(=O)Cc1c(C(=O)O)[nH]c2ccc(Cl)cc12` was tested, and the Potency was inconclusive: 89.1 µM [inhibitor, single point]. With `COC(=O)\C(C(C)=O)=C(/C=C/C=C/C=C/N(C)C)N(C)C` the Potency was active: 10 µM. For `Cc1cccc(NC(=O)CSc2nc3ccc(NC(=O)c4ccco4)cc3s2)c1`, the Potency was inconclusive: 35.5 µM [inhibitor, single point]. For `Cn1c(-c2ccc3ccccc3n2)[n+](C)c2ccccc21`, the Potency was inconclusive: 0.891 µM [inhibitor, full curve, poor fit]. In the case of `O=C(Cc1ccc(-n2cccc2)cc1)NC1CCCCCC1`, the Potency is reported as inconclusive: 44.7 µM [inhibitor, partial curve]. With `CCOC(=O)c1c(NC(=O)c2cc(-c3ccc(Cl)s3)nc3ccccc23)sc(C(N)=O)c1C` the Potency was inconclusive: 44.7 µM [inhibitor, partial curve]. For `COc1ccccc1OCC(=O)N1CCCC(Nc2ccc(F)c(F)c2)C1` (stereo not drawn), the Potency was inconclusive: 0.282 µM [inhibitor, full curve, poor fit]. `CCOC(=O)c1cnc(SC2CCc3ccccc3C2=O)nc1N` (stereo not drawn) was tested, and the Potency was inconclusive: 8.91 µM [inhibitor, full curve]. For `O=C(O)C1CSC(c2ccc3c(c2)OCO3)N1` (stereo not drawn), the Potency was inconclusive: 39.8 µM [inhibitor, single point]. `O=C(NCc1ccccn1)c1ccc2nc(-c3ccco3)c(-c3ccco3)nc2c1` was tested, and the Potency was active: 3.16 µM. `CC(NCc1ccc(OCc2ccc(Cl)cc2)cc1)C(O)c1ccccc1` (stereo not drawn) was tested, and the Potency was inconclusive: 89.1 µM [inhibitor, single point]. For `O=C(Nc1ccc(OC(F)F)c(Cl)c1)c1cccc(OC(F)F)c1`, the Potency was inconclusive: 89.1 µM [inhibitor, single point]. In the case of `O=C(Cc1ccccc1)NNC(=O)c1ccc(NC(=O)c2ccccc2)cc1`, the Potency is reported as active: 20 µM. With `COc1ccc(-c2oc3ncnc(NCCCN(C)C)c3c2-c2ccc(OC)cc2)cc1` the Potency was inconclusive: 31.6 µM [inhibitor, full curve, poor fit]. `CC(C)OCCCNC(=O)c1ccc(-n2c(-c3ccccc3)cc3c2CCCC3)cc1` was tested, and the Potency was inconclusive: 25.1 µM [inhibitor, full curve, poor fit]. `COc1cccc(C(=O)NCC(c2ccc(N(C)C)cc2)N2CCCC2)c1OC` (stereo not drawn) was tested, and the “activity change, negative = inhibition” value was inactive: -3.8%. With `CC(C)CN1CCc2nc(N3CCN(c4ncccn4)CC3)ncc2C1` the “activity change, negative = inhibition” value was inactive: -2.28%. With `CS(=O)(=O)N(CCc1ccccc1)CC(=O)Nc1ccc(Br)cc1F` the “activity change, negative = inhibition” value was inactive: -0.0858%. In the case of `COc1ccccc1-n1cc(CN2CCCC(CO)(Cc3cccc(Cl)c3)C2)cn1` (stereo not drawn), the Potency is reported as inconclusive: 3.98 µM [inhibitor, partial curve, poor fit]. `CCCCCC/C=N/Nc1nnc(Cc2ccccc2)c(=O)[nH]1` was tested, and the Potency was inconclusive: 0.631 µM [inhibitor, full curve, poor fit]. `CO/N=C(\C(=O)N[C@@H]1C(=O)N2C(C(=O)O)=C(COC(C)=O)CS[C@H]12)c1csc(N)n1` (stereo in doubt) was tested, and the Potency was active: 25.1 µM. With `Cc1oc2nc(SCCCC(=O)NCCCO)nc(N)c2c1C` the Potency was inconclusive: 63.1 µM [inhibitor, single point]. `COc1ccc(CN(C)CC(=O)NC(=O)NCc2ccccc2)c(OC)c1` was tested, and the Potency was inconclusive: 89.1 µM [inhibitor, single point]. In the case of `COc1ccc2nc(SCC(=O)c3c(C)[nH]c4ccccc34)nc(C)c2c1`, the Potency is reported as inconclusive: 10 µM [inhibitor, partial curve, poor fit]. `O=C(CSc1nnc(Cc2ccccc2)o1)Nc1ccc2c(c1)OCO2` was tested, and the Potency was inconclusive: 89.1 µM [inhibitor, single point]. With `CC(C)c1ccc(NC(=O)c2csnn2)cc1` the Potency was inconclusive: 89.1 µM [inhibitor, single point]. In the case of `O=C(Cc1cccs1)N1CCN(c2ccc([N+](=O)[O-])cc2)CC1`, the Potency is reported as active: 20 µM. For `O=C(OCC(=O)c1c[nH]c2ccccc12)c1ccc([N+](=O)[O-])s1`, the Potency was inconclusive: 11.2 µM [inhibitor, partial curve, poor fit]. With `CCOc1ccccc1CNC(=O)c1ccc(Sc2ccc(Cl)cc2)c(NC(C)=O)c1` the Potency was inconclusive: 89.1 µM [inhibitor, single point].
